From patent US20220323391A1 (HAMLET PHARMA AB, priority 2019, published 2022)

Test: peptide made by a vendor (Fmoc solid-phase peptide synthesis)
Settings: whole synthesis

Substance: Ac-KQFTKAELSQLLKDIDGYGGIALPELIATMFHTSGYDTQ-OH
- purity (crude or final not stated): >95%
